Laboratory results as given in patent US6492333B1, “Treatment of myeloma bone disease with proteasomal and NF-κB activity inhibitors” (Osteoscreen, Inc., priority 1999, dated 2002).
Some of these results come from one statement about several compounds together. For at least one compound, name, drawing or mass did not settle the structure. Where a SMILES comes first, the peptide text is derived from it. The star is where a group is joined. Cbz = O=C(OCc1ccccc1)*; OtBu = CC(C)(C)O*

What was measured:
human myeloma IM-9 cells = experiment: Viability of myeloma cells by trypan blue dye-exclusion assay (IM-9); assay type: cell-based; details: 0.1 μM, 24 hours
Protocol: (§1) In another experiment, the direct effect of the proteasomal inhibitor PSI and other NF-kB inhibitors on the viability in human myeloma cells and 5TGM-1 cells in vitro was evaluated.
(§2) 1×10^6 human myeloma (IM9 and U266BL) cells or 5TGM-1 cells were plated out in the presence and/or absence of PSI and other NF-κB inhibitors. After 24 hours, the viability of the myeloma cells was assessed by the trypan blue dye-exclusion assay. These compounds, at low (submicromolar) concentrations, markedly decrease the viability of both human and murine myeloma cells in culture.

5TGM1 cells = experiment: Viability of myeloma cells by trypan blue dye-exclusion assay (5TGM-1); assay type: cell-based, murine; details: 1 nM, 24 hours
Protocol: as §1, §2

Question: What does the source list for CC[C@H](C)[C@H](NC(=O)OCc1ccccc1)C(=O)N[C@@H](CCC(=O)OC(C)(C)C)C(=O)N[C@@H](C)C(=O)N[C@H](C=O)CC(C)C [PSI, N-carbobenzoyl-Ile-Glu-(OtBu)-Ala-Leu-CHO] (Cbz-IE(OtBu)AL-aldehyde)?
Answer: viability (human myeloma IM-9 cells): less than 10%; viability (5TGM1 cells): less than 40%
